From patent publication US20130317056A1, “NEURONAL NICOTINIC AGONISTS AND METHODS OF CORRELATING COMT SNPS” (ABBVIE INC., priority 2012, published 2013)

System: clinically stable subjects with schizophrenia
Experiment: Disposition of subjects and tolerability, Clinical Study A
Type: in vivo, human
Conditions: 25 mg group
Excerpt: A Phase 2a proof-of-concept (POC) study in clinically stable subjects with schizophrenia who were clinically stable and received stable doses of atypical antipsychotic therapy. The study was a Phase 2, multi-center, randomized, double-blind, placebo-controlled, parallel group study designed to evaluate the safety and efficacy of doses of (4s)-4-(5-phenyl-1,3,4-thiadiazol-2-yloxy)-1-azatricyclo[3.3.1.1^3,7]decane (Compound A) in clinically stable male and female subjects (ages 20 to 55, inclusive) with a Diagnostic and Statistical Manual of Mental Disorders—Fourth Edition, Text Revision (DSM-IV-TR) diagnosis of schizophrenia. Psychiatric diagnoses were confirmed using the Mini-International Neuropsychiatric Interview (MINI) version 6.0.0. The criteria for clinical stability was determined by a combination of retrospective data (over the 4 months prior to the start of Screening, which will be supported by clinical records, patient, identified responsible contact person, and physician interviews), and prospective data assessed during the Prospective Stabilization Period of 28 to 42 days duration.
The study consisted of a screening period of at least 28 and up to 42 days, a 84-day outpatient treatment period, a 14-day post-treatment period, and a post-treatment follow-up period. The screening period consisted of three visits: Screening Visit 1, Screening Visit 2, and Day −1. […]

**Q.** `c1ccc(-c2nnc(O[C@@H]3C4CC5C[C@H]3C[N@](C5)C4)s2)cc1` [Compound A, (4s)-4-(5-phenyl-1,3,4-thiadiazol-2-yloxy)-1-azatricyclo[3.3.1.1^3,7]decane] was tested. Which completion rate did it give?
**A.** 73.1%
